At least one peptide structure holds a part that was inferred or is arguable (an end, a ring closure or a residue). Residues, ends and D or L forms follow the SMILES beside them.
Tested on: Spontaneously hypertensive rats (SHR/Izm)
Assay: Systolic blood pressure in spontaneously hypertensive rats after single oral dose of peptide (tail-cuff method)
Format: in vivo, rat
Conditions: single oral dose 10 mg/kg body weight, measured 2 and 6 hours after administration, vs distilled water control, FIG. 6

Compound: CC(C)[C@H](N)C(=O)N[C@H](C(=O)N[C@@H](Cc1ccc(O)cc1)C(=O)N1CCC[C@H]1C(=O)O)C(C)C [VVYP, Val-Val-Tyr-Pro] (H-VVYP-OH)
- blood pressure-lowering effect (systolic blood pressure): has a blood pressure-lowering effect

Reference: patent US8394769B2, “Anti-hypertensive agent” (MG Pharma Inc., priority 2007, dated 2013)
